Laboratory results: PubChem BioAssay AID1159578 (Peter MacCallum Cancer Centre, 2015)
The whole screen tested about 18,000 reagents; shown is an unselected part. About 1,030 of them (5.7%) count as active. 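Inactive calls also include pools with fewer than 3300 nuclei, whose migration was not assessed.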 Raw values are not corrected between plates. The numbers tell different reagents against one gene apart.

- Purpose: 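siRNA pools altering how lymphatic endothelial cells close a scratch wound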 (primary screen)
- System: human lymphatic endothelial cells
- Reagents: siRNA pool against human genes, 40 nM
- Timing: 48 h after transfection
- Detection: 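Cells stained with dye and imaged after a scratch; covered wound area and nuclei counted, duplicates averaged, migration set against mock wells and turned into a robust z-score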
- Scale: migration robust z-score: higher = faster migration into the scratch; migration relative to mock: higher = more scratch area covered than mock; nuclei per well: higher = more cells in the well
- Hit rule: 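Migration changed when robust z exceeds 2 or falls below -2 and mean nuclei number is at least 3300; otherwise not called changed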
- Calls: active = migration changed; inactive = no migration change, or too few cells

| target gene | reagent no. | migration robust z-score | migration class with cell-count check | migration relative to mock | nuclei per well, duplicate mean | activity call |
| --- | --- | --- | --- | --- | --- | --- |
| C11orf65 | 1 | 0.8 | migration z between -2 and 2; enough cells | 1.09 | 4605 | inactive |
| TSLP | 1 | 0.17 | migration z between -2 and 2; enough cells | 0.94 | 6176 | inactive |
| RAB12 | 1 | -0.18 | migration z between -2 and 2; enough cells | 0.84 | 5088 | inactive |
| ILF3 | 1 | -1.53 | migration z between -2 and 2; enough cells | 0.51 | 5647 | inactive |
| OR13C2 | 1 | 0.29 | migration z between -2 and 2; enough cells | 0.96 | 5219 | inactive |
| H2AB1 | 1 | -0.22 | migration z between -2 and 2; enough cells | 0.82 | 5528 | inactive |
| EDNRA | 1 | 0.5 | migration z between -2 and 2; enough cells | 0.9 | 6794 | inactive |
| MRPL11 | 1 | -2.63 | migration z below -2; enough cells | 0.2 | 4024 | active |
| SHROOM4 | 1 | 2.21 | migration z above 2; enough cells | 1.46 | 5366 | active |
| ZBTB46 | 1 | -1.02 | migration z between -2 and 2; enough cells | 0.62 | 5010 | inactive |
| MOB3A | 1 | -3.51 | migration z below -2; enough cells | -0.03 | 4477 | active |
| LAMA5 | 1 | -0.73 | migration z between -2 and 2; enough cells | 0.66 | 5165 | inactive |
| PRM3 | 1 | 0 | migration z between -2 and 2; enough cells | 0.89 | 6262 | inactive |
| ASPN | 1 | 0.55 | migration z between -2 and 2; enough cells | 1.02 | 6018 | inactive |
| PKD1L2 | 1 | -0.1 | migration z between -2 and 2; enough cells | 0.78 | 5311 | inactive |
| AARS2 | 1 | 0.97 | migration z between -2 and 2; enough cells | 1.14 | 6701 | inactive |
| SLC28A2 | 1 | -0.52 | migration z between -2 and 2; enough cells | 0.7 | 6390 | inactive |
| WNT4 | 1 | -0.42 | migration z between -2 and 2; enough cells | 0.78 | 5672 | inactive |
| PIP4K2B | 1 | -1.61 | migration z between -2 and 2; enough cells | 0.5 | 3830 | inactive |
| ZBTB6 | 1 | 0.71 | migration z between -2 and 2; enough cells | 1.06 | 5766 | inactive |
| BPIFA1 | 1 | 1.17 | migration z between -2 and 2; enough cells | 1.19 | 5204 | inactive |
| DGCR8 | 1 | 0.7 | migration z between -2 and 2; enough cells | 1.06 | 7834 | inactive |
| OR6C2 | 1 | -0.82 | migration z between -2 and 2; enough cells | 0.67 | 4714 | inactive |
| SOAT2 | 1 | -0.43 | migration z between -2 and 2; enough cells | 0.77 | 6034 | inactive |
| SIKE1 | 1 | -0.41 | migration z between -2 and 2; enough cells | 0.78 | 6140 | inactive |
| DAB2IP | 1 | -0.86 | migration z between -2 and 2; enough cells | 0.66 | 4632 | inactive |
| WWP2 | 1 | -0.94 | migration z between -2 and 2; enough cells | 0.62 | 6573 | inactive |
| SLAMF7 | 1 | 0.62 | migration z between -2 and 2; enough cells | 1.04 | 5203 | inactive |
| FGF8 | 1 | 1.14 | migration z between -2 and 2; enough cells | 1.02 | 5618 | inactive |
| DIP2C | 1 | 0.15 | migration z between -2 and 2; enough cells | 0.92 | 5122 | inactive |
| ZP4 | 1 | -0.5 | migration z between -2 and 2; enough cells | 0.76 | 5664 | inactive |
| SLC66A3 | 1 | -0.86 | migration z between -2 and 2; enough cells | 0.66 | 5786 | inactive |
| GOT1L1 | 1 | -0.94 | migration z between -2 and 2; enough cells | 0.62 | 5335 | inactive |
| MPHOSPH8 | 1 | 0 | migration z between -2 and 2; enough cells | 0.89 | 5852 | inactive |
| GTF2H2C_2 | 1 | 1.08 | migration z between -2 and 2; enough cells | 1.16 | 5934 | inactive |
| C10orf90 | 1 | 0.28 | migration z between -2 and 2; enough cells | 0.96 | 6018 | inactive |
| FLAD1 | 1 | 0.44 | migration z between -2 and 2; enough cells | 0.89 | 4591 | inactive |
| PLA2G7 | 1 | 0.86 | migration z between -2 and 2; enough cells | 0.97 | 5519 | inactive |
| EGR3 | 1 | -0.44 | migration z between -2 and 2; enough cells | 0.72 | 4660 | inactive |
| RRP7A | 1 | 0.17 | migration z between -2 and 2; enough cells | 0.93 | 5594 | inactive |
| PCDHGA5 | 1 | 0.34 | migration z between -2 and 2; enough cells | 0.98 | 5634 | inactive |
| ATG9B | 1 | 1.54 | migration z between -2 and 2; enough cells | 1.29 | 5766 | inactive |
| ZNF835 | 1 | -1.27 | migration z between -2 and 2; enough cells | 0.55 | 4174 | inactive |
| GPC1 | 1 | 0.56 | migration z between -2 and 2; enough cells | 1.03 | 5683 | inactive |
| POTEB3 | 1 | 2.39 | migration z above 2; enough cells | 1.51 | 4998 | active |
| RPLP2 | 1 | -0.85 | migration z between -2 and 2; enough cells | 0.67 | 4946 | inactive |
| CCL14 | 1 | 1.2 | migration z between -2 and 2; enough cells | 1.04 | 5471 | inactive |
| CT45A3 | 1 | -0.18 | migration z between -2 and 2; enough cells | 0.77 | 4226 | inactive |
| CT45A3 | 2 | 0.92 | migration z between -2 and 2; enough cells | 1.12 | 5476 | inactive |
| ST6GAL2 | 1 | 1.12 | migration z between -2 and 2; enough cells | 1.02 | 5732 | inactive |
| TTF1 | 1 | -0.29 | migration z between -2 and 2; enough cells | 0.75 | 5664 | inactive |
| PCSK7 | 1 | 1.06 | migration z between -2 and 2; enough cells | 1.01 | 5147 | inactive |
| OTOG | 1 | -0.99 | migration z between -2 and 2; enough cells | 0.62 | 4472 | inactive |
| CSTL1 | 1 | 1.52 | migration z between -2 and 2; enough cells | 1.28 | 5840 | inactive |
| GHRL | 1 | -0.82 | migration z between -2 and 2; enough cells | 0.68 | 4504 | inactive |
| UBE2S | 1 | 1.3 | migration z between -2 and 2; enough cells | 1.05 | 5496 | inactive |
| WHRN | 1 | 1.06 | migration z between -2 and 2; enough cells | 1.17 | 5638 | inactive |

Copied from the list:
Result of LAMA5 under “migration relative to mock”: 0.66
For “nuclei per well, duplicate mean”, RRP7A has 5594
For “nuclei per well, duplicate mean”, SOAT2 has 6034
Under “migration class with cell-count check”, POTEB3 has migration z above 2; enough cells
Under “migration relative to mock”, C10orf90 has 0.96
FGF8, migration relative to mock = 1.02
